Assay results published in PubChem BioAssay AID504467 (National Center for Advancing Translational Sciences (NCATS), 2011).
In all, about 330,000 compounds went through this assay and about 7,700 (2.3%) were called active. Inconclusive means that the source gave no clear call. Such entries were picked first, then a sample of the others. The call rests on the fitted dose curve; in most records, active means well fitted inhibition curve with a large enough effect; inconclusive means small, poorly fitted or top-dose-only effect, or effect the other way; inactive means flat fitted curve, though single readings scatter. Potencies of inconclusive entries are doubtful fits and often do not repeat.

assay: qHTS screen for small molecules that inhibit ELG1-dependent DNA repair in human embryonic kidney (HEK293T) cells expressing luciferase-tagged ELG1; settings: HEK293T ELG1-luciferase reporter, luminescence, 16 h, DNA damage induced by 5-fluorouridine; series mostly up to 46.1 µM; further: nearly all actives have a fitted effect of over 55% in size
Method in brief: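 Luminescence from the luciferase reporter, measured 30 min after ONE-Glo reagent at room temperature, was the read-out. Beforehand, 2,000 cells per well were exposed for 16 hr at 37 °C to 5-fluorouridine together with compound or vehicle.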
Potency means the concentration at half of the fitted maximal effect.

SMILES | Potency
Cc1ccc(S(=O)(=O)NCC2CCC(C(=O)N3CCN(C)CC3)CC2)cc1 (centres undefined) | inactive
CCCCCCCNC(=O)C1(CC2CC(c3ccc(Cl)cc3)=NO2)CCN(C(=O)C2CCCC2)CC1 (centres undefined) | inactive
Cc1ccc(C)c(N2CCN(C(=O)CCc3nc(-c4ccccc4F)no3)CC2)c1 | inconclusive: 0.259 µM [inhibitor, single point]
C=CCc1cccc2cc(C(=O)NC)c(=O)oc12 | inconclusive: 4.61 µM [activator, single point]
COc1ccc(OC)c(CN2CCN(C(=O)CN3C(=O)NC4(CCCC4)C3=O)CC2)c1 | inactive
Cc1ccc(/C=C2/CCc3c([nH]c4ccccc34)C2=O)cc1 | inconclusive: 2.91 µM [activator, full curve]
CCn1c(C)nc2cc(C(=O)N/N=C(\C)c3ccc(OC)cc3O)ccc21 | active: 7.3 µM
COc1cccc(-c2nc(COc3ccc(Cl)cc3Cl)no2)c1 | inactive
O=C(CNCc1ccccc1Cl)Nc1ccc2c(c1)OCCO2 | inconclusive: 9.2 µM [activator, partial curve]
COC(=O)Cc1ccc(NC(=S)N2CCN(c3ccc(OC)cc3)CC2)cc1 | inactive
CCCCNC(=S)N=Nc1c(O)[nH]c2ccccc12 | inactive
COc1cc(NC(=O)c2cccs2)cc(OC)c1 | inconclusive: 20.6 µM [activator, partial curve]
CCCNCC(O)Cn1c2ccccc2n2c(=O)cc(C)c(C#N)c12 (centres undefined) | inconclusive: 2.06 µM [inhibitor, partial curve, poor fit]
CCOC(=O)N1CCN(CCC(=O)Nc2ccc(Br)cc2)CC1 | inconclusive: 23.1 µM [inhibitor, single point]
Cc1ccc(NC(=O)CCCNC(=O)c2ccc(Cl)cc2)nc1 | inconclusive: 14.6 µM [activator, partial curve, poor fit]
CC(=O)Nc1nc(C(F)(F)F)cs1 | inconclusive: 6.51 µM [inhibitor, partial curve, poor fit]
CCc1nc(NC2CCCCC2)c(C#N)c2c1COC(C)(C)C2 | inconclusive: 18.4 µM [inhibitor, single point]
O=C(CNC(=O)c1ccccc1F)OCc1csc(-c2ccccc2)n1 | inconclusive: 29.1 µM [activator, single point]
O=C(c1ccccc1)c1ccc(OCC(O)CNCc2ccc(Cl)cc2)cc1 (centres undefined) | inactive
Cc1cccc(/C=C2\CCC(C3CCCC3)C2=O)c1 (centres undefined) | inconclusive: 20.6 µM [activator, partial curve]
CCOC(=O)c1ccc(-n2c(C)nc3c(cnn3-c3ccccc3Cl)c2=O)cc1 | inconclusive: 23.1 µM [inhibitor, single point]
CCCCNc1c(-c2cccc(-c3ccc(OC)cc3)c2)nc2cc(C)ccn12 | active: 23.1 µM

Laid out differently: entries from further up.
CCCCNC(=S)N=Nc1c(O)[nH]c2ccccc12
  Potency: inactive
COc1cc(NC(=O)c2cccs2)cc(OC)c1
  Potency: inconclusive: 20.6 µM [activator, partial curve]
CCCNCC(O)Cn1c2ccccc2n2c(=O)cc(C)c(C#N)c12 (centres undefined)
  Potency: inconclusive: 2.06 µM [inhibitor, partial curve, poor fit]

(cont.)

SMILES | Potency
COC(=O)[C@H](Cc1c[nH]c2ccccc12)NC(=O)Nc1ccccc1OC | inactive
O=C(O)c1cccc(Nc2nc3ccccc3nc2NS(=O)(=O)c2ccccc2)c1 | inactive
COc1ccc(-c2cc(C(=O)Nc3c(C)nn(Cc4ccc(Cl)cc4)c3C)no2)cc1 | inconclusive: 29.1 µM [activator, single point]
COc1ccc(C2=NN(C(=O)CCC(=O)O)C(c3ccccc3F)C2)cc1 (centres undefined) | inconclusive: 0.164 µM [inhibitor, full curve, poor fit]
Cc1ccccc1NC(=O)c1nc(S(C)(=O)=O)ncc1Cl | inconclusive: 35.5 µM [inhibitor, single point]
O=C(Nc1nc(-c2ccccc2)cs1)C1COc2ccccc2O1 (centres undefined) | inactive
C/C=C/C(=O)Nc1cccc(C(F)(F)F)c1 | inconclusive: 14.6 µM [activator, partial curve, poor fit]
COC/C=C/C1=CC2=CC(=O)C(C)(OC(=O)c3cnc4ccccc4n3)C(=O)C2=CN1c1ccccc1 (centres undefined) | inconclusive: 14.6 µM [activator, partial curve, poor fit]
Nc1ccc(-n2cnc3cc([N+](=O)[O-])ccc32)cc1 | inconclusive: 18.4 µM [activator, partial curve]
CC(=O)Nc1ccc(S(=O)(=O)N(C)CC(=O)OCC(=O)NC(C)C23CC4CC(CC(C4)C2)C3)cc1 (centres undefined) | inconclusive: 20.6 µM [activator, partial curve]
Cc1nn(-c2ccccc2)c(C)c1C(=O)OCC(=O)c1c(N)n(CC(C)C)c(=O)n(C)c1=O | active: 3.26 µM
C/C(=N\Nc1nc2ccccc2c(=O)n1O)c1ccco1 | inconclusive: 4.11 µM [activator, full curve]
CCn1cnc2sc(C(=O)N(Cc3ccc(N(C)C)cc3)Cc3ccco3)c(C)c2c1=O | inconclusive: 14.6 µM [inhibitor, partial curve]
Cc1c(C(=O)N2CCN(CC(=O)Nc3ccccc3Cl)CC2)oc2ccc(Br)cc12 | inactive
COC(=O)c1cc(NC(=O)Nc2ccccc2)ccc1Cl | inconclusive: 29.1 µM [inhibitor, single point]
C[C@H](NC(=O)c1nc[nH]c1C(=O)N[C@H](C)c1ccccc1)C(=O)OCc1ccccc1 | inconclusive: 20.6 µM [activator, partial curve, poor fit]
Cc1ccc(-n2nnnc2SCC(=O)NC(=O)Nc2ccc3c(c2)OCCO3)cc1 | inconclusive: 11.2 µM [activator, partial curve, poor fit]
CCCC(=O)c1ccc(-c2ccccc2)cc1 | inconclusive: 29.1 µM [activator, single point]
COc1cccc(NS(=O)(=O)c2ccc3c(c2)C2C=CCC2C(c2ccc(C(=O)O)cc2)N3)c1 (centres undefined) | inactive
CCN(CC)S(=O)(=O)c1ccc2oc(C(=O)NCc3ccc(C)cc3)c(C)c2c1 | inconclusive: 20.6 µM [inhibitor, single point]
O=C(Nc1ccccc1N1CCN(c2ccc(F)cc2)CC1)c1ccccc1 | inconclusive: 4.61 µM [inhibitor, single point]
N/C(=N\OC(=O)CCCc1ccccc1)c1ccccn1 | inconclusive: 13 µM [activator, partial curve]
